Measured values taken from PMC11137954.
No constants are given. Whether binding was seen depends on the method and setting. Binding seen in cells or lysates may run through a third protein. Some results given as binding are weak or reduced against the parent protein; the word gives no strength.

Target: T1, Nucleosome assembly protein 1-like 1 (human (endogenous in Hep-G2 and Hep-3B)) (UniProt P55209)
T1 sequence: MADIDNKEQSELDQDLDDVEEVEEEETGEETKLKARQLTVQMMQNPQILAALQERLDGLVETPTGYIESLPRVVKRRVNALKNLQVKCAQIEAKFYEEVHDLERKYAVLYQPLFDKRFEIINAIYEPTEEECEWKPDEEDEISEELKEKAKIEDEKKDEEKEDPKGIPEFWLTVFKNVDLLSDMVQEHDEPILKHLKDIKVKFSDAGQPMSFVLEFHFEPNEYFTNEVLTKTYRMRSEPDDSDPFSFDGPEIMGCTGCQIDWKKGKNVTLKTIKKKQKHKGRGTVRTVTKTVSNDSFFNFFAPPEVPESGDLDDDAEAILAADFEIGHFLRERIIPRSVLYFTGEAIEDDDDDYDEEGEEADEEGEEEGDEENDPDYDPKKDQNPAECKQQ
Experiment: co-IP; immunoprecipitation with anti-NAP1L1 or anti-UBE2O antibody in Hep-G2 and Hep-3B cells, detection by western blot

B1: Ubiquitin-conjugating enzyme E2O (enzyme, UniProt Q9C0C9 1-1292)
chain: MADPAAPTPAAPAPAQAPAPAPEAVPAPAAAPVPAPAPASDSASGPSSDSGPEAGSQRLLFSHDLVSGRYRGSVHFGLVRLIHGEDSDSEGEEEGRGSSGCSEAGGAGHEEGRASPLRRGYVRVQWYPEGVKQHVKETKLKLEDRSVVPRDVVRHMRSTDSQCGTVIDVNIDCAVKLIGTNCIIYPVNSKDLQHIWPFMYGDYIAYDCWLGKVYDLKNQIILKLSNGARCSMNTEDGAKLYDVCPHVSDSGLFFDDSYGFYPGQVLIGPAKIFSSVQWLSGVKPVLSTKSKFRVVVEEVQVVELKVTWITKSFCPGGTDSVSPPPSVITQENLGRVKRLGCFDHAQRQLGERCLYVFPAKVEPAKIAWECPEKNCAQGEGSMAKKVKRLLKKQVVRIMSCSPDTQCSRDHSMEDPDKKGESKTKSEAESASPEETPDGSASPVEMQDEGAEEPHEAGEQLPPFLLKEGRDDRLHSAEQDADDEAADDTDDTSSVTSSASSTTSSQSGSGTSRKKSIPLSIKNLKRKHKRKKNKITRDFKPGDRVAVEVVTTMTSADVMWQDGSVECNIRSNDLFPVHHLDNNEFCPGDFVVDKRVQSCPDPAVYGVVQSGDHIGRTCMVKWFKLRPSGDDVELIGEEEDVSVYDIADHPDFRFRTTDIVIRIGNTEDGAPHKEDEPSVGQVARVDVSSKVEVVWADNSKTIILPQHLYNIESEIEESDYDSVEGSTSGASSDEWEDDSDSWETDNGLVEDEHPKIEEPPIPPLEQPVAPEDKGVVISEEAATAAVQGAVAMAAPMAGLMEKAGKDGPPKSFRELKEAIKILESLKNMTVEQLLTGSPTSPTVEPEKPTREKKFLDDIKKLQENLKKTLDNVAIVEEEKMEAVPDVERKEDKPEGQSPVKAEWPSETPVLCQQCGGKPGVTFTSAKGEVFSVLEFAPSNHSFKKIEFQPPEAKKFFSTVRKEMALLATSLPEGIMVKTFEDRMDLFSALIKGPTRTPYEDGLYLFDIQLPNIYPAVPPHFCYLSQCSGRLNPNLYDNGKVCVSLLGTWIGKGTERWTSKSSLLQVLISIQGLILVNEPYYNEAGFDSDRGLQEGYENSRCYNEMALIRVVQSMTQLVRRPPEVFEQEIRQHFSTGGWRLVNRIESWLETHALLEKAQALPNGVPKASSSPEPPAVAELSDSGQQEPEDGGPAPGEASQGSDSEGGAQGLASASRDHTDQTSETAPDASVPPSVKPKKRRKSYRSFLPEKSGYPDIGFPLFPLSKGFIKSIRGVLTQFRAALLEAGMPECTEDK
B1 was tested, and the binding was “binds”.
